# Measured values as given in the supplement of paper PMC6411743.
# Chains of the proteins cited; added tags and fusions are not shown. Lines headed by an entry give the natural chain unless they say otherwise; changes in a name come on top.
# UniProt Q8N8A6: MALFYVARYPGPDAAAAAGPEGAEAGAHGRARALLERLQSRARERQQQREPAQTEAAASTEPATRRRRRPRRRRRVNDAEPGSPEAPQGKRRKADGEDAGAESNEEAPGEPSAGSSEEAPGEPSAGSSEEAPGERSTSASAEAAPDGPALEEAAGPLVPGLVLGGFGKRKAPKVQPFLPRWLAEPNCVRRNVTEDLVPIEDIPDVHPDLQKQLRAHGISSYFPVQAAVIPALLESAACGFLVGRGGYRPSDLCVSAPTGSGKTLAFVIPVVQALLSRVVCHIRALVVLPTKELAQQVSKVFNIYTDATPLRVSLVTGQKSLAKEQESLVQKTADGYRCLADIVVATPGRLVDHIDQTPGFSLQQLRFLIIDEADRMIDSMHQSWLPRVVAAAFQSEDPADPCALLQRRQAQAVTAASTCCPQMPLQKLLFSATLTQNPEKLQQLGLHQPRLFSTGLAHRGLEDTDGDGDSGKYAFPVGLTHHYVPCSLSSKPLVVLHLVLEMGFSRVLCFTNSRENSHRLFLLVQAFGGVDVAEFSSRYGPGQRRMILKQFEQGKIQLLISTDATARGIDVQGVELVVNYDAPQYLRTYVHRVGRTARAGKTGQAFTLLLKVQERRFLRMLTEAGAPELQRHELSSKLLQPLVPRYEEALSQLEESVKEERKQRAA
# UniProt Q8NEJ9: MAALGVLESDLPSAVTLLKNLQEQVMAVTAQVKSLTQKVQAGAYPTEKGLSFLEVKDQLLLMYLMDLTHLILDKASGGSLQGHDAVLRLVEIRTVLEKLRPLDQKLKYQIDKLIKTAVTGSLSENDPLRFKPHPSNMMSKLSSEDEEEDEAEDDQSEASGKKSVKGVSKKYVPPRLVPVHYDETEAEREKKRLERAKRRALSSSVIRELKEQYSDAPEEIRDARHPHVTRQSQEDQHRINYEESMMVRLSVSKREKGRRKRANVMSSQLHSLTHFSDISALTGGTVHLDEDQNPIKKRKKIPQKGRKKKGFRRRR
# UniProt Q8NFG4: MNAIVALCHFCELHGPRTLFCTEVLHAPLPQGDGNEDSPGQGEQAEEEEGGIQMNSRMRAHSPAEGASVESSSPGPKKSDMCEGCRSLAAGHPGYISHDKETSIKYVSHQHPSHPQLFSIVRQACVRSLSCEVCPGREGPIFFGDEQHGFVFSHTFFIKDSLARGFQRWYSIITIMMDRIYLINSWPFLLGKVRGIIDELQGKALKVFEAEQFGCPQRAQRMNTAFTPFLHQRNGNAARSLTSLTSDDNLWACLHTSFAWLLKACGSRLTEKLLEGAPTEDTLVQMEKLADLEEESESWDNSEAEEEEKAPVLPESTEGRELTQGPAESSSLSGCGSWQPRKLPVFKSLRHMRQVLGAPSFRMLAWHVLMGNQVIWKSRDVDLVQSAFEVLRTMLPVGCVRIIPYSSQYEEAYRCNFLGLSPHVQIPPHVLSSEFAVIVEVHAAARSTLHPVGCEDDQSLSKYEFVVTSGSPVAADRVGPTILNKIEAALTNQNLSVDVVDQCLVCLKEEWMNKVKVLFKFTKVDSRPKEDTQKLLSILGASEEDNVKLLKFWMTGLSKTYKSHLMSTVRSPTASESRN
# UniProt Q8NB78: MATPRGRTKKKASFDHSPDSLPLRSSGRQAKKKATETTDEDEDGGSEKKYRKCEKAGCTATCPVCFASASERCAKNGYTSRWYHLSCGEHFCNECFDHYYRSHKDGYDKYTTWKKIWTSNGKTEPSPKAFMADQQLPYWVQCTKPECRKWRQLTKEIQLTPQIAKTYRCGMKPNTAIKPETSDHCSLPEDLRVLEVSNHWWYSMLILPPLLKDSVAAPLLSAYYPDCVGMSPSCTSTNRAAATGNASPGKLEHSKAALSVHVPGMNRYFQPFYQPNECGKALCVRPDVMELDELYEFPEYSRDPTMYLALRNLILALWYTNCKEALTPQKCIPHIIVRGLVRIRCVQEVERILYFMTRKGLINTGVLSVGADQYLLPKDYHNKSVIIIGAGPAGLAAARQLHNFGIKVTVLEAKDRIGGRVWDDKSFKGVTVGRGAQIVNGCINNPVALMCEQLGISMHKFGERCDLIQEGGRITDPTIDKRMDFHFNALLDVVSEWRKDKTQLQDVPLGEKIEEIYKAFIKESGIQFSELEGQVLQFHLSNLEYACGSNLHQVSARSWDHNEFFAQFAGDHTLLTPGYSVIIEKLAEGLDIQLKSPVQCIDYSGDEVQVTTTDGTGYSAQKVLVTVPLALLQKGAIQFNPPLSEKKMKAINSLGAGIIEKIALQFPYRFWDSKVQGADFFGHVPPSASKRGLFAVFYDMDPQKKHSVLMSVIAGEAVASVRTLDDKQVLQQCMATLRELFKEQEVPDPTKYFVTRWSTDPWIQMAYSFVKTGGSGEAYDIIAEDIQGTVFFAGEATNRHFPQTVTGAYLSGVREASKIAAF
# UniProt Q8NC60: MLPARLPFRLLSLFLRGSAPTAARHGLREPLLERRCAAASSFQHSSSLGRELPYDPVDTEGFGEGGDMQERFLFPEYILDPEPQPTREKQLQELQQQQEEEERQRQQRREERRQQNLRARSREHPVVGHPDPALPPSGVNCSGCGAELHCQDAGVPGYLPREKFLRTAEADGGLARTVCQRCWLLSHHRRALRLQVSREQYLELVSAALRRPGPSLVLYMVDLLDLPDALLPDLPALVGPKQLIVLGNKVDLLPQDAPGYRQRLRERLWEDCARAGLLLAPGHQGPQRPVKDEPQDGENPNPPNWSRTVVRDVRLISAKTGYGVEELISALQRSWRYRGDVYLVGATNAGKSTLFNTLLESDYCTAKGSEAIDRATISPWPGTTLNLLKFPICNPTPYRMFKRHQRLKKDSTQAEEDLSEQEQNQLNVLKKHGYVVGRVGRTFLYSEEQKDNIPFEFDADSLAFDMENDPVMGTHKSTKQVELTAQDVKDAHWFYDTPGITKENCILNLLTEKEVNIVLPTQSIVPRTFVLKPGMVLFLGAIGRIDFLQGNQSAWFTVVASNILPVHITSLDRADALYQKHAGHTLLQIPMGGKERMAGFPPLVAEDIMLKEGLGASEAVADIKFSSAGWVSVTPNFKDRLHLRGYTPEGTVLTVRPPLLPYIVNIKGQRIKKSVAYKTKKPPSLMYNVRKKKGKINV
# UniProt Q8N3Z6: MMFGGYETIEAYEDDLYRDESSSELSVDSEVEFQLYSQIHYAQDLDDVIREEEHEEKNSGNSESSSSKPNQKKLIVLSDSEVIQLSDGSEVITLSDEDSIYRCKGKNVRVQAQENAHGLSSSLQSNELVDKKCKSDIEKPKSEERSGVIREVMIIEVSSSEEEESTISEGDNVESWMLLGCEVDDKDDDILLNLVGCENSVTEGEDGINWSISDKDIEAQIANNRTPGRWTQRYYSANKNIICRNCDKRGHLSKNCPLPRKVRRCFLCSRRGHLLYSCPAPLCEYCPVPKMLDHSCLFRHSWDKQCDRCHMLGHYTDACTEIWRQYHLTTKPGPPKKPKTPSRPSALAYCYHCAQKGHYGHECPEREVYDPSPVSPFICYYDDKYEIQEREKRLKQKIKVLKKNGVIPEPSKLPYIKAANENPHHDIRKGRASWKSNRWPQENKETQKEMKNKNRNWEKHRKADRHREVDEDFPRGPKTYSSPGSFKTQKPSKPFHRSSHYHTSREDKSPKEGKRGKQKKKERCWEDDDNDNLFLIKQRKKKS
# UniProt Q8NAF0: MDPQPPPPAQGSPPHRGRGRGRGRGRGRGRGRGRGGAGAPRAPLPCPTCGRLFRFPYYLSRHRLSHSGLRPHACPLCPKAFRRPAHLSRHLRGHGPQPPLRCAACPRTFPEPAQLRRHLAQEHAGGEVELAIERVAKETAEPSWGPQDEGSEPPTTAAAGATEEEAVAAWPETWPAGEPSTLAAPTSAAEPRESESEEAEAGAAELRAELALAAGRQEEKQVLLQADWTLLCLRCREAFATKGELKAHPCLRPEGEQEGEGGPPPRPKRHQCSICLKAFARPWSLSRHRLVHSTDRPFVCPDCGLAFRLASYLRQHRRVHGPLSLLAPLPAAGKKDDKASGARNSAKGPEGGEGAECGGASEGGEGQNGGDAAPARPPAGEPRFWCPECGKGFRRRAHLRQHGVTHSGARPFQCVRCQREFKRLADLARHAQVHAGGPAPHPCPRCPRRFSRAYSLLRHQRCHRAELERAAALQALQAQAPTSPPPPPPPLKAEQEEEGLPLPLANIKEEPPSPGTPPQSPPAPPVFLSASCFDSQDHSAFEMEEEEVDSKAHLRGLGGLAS
# UniProt Q8IWZ8: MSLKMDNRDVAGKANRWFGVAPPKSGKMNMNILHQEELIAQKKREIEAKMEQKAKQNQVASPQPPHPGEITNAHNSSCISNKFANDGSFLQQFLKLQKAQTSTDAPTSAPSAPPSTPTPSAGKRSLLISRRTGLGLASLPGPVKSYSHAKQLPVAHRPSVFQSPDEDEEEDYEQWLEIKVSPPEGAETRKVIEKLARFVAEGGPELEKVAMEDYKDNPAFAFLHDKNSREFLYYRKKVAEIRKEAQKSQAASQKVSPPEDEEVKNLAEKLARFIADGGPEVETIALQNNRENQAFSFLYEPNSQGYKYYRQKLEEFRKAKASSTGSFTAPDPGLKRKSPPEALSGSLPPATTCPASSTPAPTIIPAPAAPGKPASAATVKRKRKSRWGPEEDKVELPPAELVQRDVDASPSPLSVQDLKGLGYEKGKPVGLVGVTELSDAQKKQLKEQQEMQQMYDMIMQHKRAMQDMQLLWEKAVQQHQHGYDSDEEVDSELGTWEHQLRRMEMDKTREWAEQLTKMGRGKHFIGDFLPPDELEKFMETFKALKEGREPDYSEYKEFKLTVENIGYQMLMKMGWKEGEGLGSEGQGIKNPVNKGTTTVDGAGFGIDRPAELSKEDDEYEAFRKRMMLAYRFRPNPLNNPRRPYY
# UniProt Q8IWY9: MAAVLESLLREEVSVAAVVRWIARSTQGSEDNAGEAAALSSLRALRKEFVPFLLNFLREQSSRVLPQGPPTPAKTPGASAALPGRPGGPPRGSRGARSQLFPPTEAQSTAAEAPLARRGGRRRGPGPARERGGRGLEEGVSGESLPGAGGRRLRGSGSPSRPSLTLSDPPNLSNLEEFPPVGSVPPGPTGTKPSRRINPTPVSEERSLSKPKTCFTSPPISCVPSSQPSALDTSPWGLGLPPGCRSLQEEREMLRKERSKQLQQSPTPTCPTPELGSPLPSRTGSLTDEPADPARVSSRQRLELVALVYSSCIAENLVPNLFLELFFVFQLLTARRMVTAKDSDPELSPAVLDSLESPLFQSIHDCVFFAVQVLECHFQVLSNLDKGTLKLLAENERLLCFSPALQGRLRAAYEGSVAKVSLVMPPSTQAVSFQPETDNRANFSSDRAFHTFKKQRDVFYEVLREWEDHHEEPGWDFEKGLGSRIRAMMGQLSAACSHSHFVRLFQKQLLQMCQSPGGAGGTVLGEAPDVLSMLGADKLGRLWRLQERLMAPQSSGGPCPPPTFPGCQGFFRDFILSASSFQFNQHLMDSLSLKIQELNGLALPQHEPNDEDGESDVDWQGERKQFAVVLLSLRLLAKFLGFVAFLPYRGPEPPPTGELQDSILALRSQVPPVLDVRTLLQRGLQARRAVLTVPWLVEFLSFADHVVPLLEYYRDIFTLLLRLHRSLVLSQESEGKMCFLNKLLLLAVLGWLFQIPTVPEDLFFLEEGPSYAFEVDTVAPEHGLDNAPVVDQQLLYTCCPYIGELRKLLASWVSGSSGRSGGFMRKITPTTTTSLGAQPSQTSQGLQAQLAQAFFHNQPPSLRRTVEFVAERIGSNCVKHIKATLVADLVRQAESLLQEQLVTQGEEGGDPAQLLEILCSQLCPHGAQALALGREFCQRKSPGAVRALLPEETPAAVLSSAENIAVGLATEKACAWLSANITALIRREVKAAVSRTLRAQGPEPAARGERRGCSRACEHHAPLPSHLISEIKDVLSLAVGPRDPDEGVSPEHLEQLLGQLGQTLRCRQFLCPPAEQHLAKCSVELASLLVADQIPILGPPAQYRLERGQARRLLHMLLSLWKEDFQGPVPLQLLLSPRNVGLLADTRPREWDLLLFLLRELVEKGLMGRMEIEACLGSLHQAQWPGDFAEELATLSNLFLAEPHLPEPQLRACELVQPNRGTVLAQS
# UniProt Q8N183: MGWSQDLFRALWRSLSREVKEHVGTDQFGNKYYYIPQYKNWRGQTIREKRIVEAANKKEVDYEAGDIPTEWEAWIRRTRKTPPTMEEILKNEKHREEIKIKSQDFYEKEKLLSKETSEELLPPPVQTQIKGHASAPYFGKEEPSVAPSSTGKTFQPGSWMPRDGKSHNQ
# UniProt Q8N5C7: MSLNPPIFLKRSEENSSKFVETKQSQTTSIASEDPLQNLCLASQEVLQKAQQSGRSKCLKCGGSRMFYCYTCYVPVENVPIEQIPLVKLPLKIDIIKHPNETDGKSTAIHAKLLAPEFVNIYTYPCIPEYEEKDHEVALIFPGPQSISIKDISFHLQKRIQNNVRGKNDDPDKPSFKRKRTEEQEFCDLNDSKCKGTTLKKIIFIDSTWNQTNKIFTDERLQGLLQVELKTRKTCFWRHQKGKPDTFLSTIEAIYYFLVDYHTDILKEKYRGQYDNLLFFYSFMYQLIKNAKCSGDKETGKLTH
# ± gives the standard deviation of the averaged measurements. This is a selection; strong and weak results do not stand in their true shares. Most entries show no effect beyond the scatter of the controls.
# Compound: Nc1ncnc2c1ncn2[C@@H]1O[C@H](COP(=O)(O)OP(=O)(O)OP(=O)(O)O)[C@@H](O)[C@H]1O [adenosine triphosphate]
# Test: NP40-soluble protein abundance relative to vehicle (solubility fold change) (ratio); higher = more soluble protein in presence of ATP
# Procedure, shortened: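 Across three independent experiments, values are fold changes against the detergent-processed vehicle for each replicate, based on vsn-normalised intensities. The samples were Jurkat crude lysate treated with eight concentrations (0.1 to 10 mM) for 10 min at room temperature and then 3 min at 37 °C. Lysate was solubilised with 0.8% NP40 and benzonase, ultracentrifuged, and the supernatant analysed by TMT-labelled LC-MS/MS.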
Target,NP40-soluble protein abundance (concentration: 0.1mM),NP40-soluble protein abundance (concentration: 0.5mM),NP40-soluble protein abundance (concentration: 1mM),NP40-soluble protein abundance (concentration: 2mM),NP40-soluble protein abundance (concentration: 4mM),NP40-soluble protein abundance (concentration: 6mM),NP40-soluble protein abundance (concentration: 8mM),NP40-soluble protein abundance (concentration: 10mM)
DDX51 (UniProt Q8N8A6),1.02 ± 0.027,1.23 ± 0.08,1.25 ± 0.021,1.38 ± 0.085,1.65 ± 0.15,1.9 ± 0.22,2.05 ± 0.18,2.29 ± 0.27
UniProt Q8NEJ9 and related entries,1.01 ± 0.065,1.03 ± 0.11,1.11 ± 0.12,1.13 ± 0.16,1.24 ± 0.064,1.29 ± 0.14,1.32 ± 0.058,1.34 ± 0.19
UniProt Q8NBL1,1.01 ± 0.048,1.04 ± 0.077,–,–,–,–,–,–
FLCN (UniProt Q8NFG4),0.965 ± 0.074,0.991 ± 0.021,1.02 ± 0.056,1 ± 0.037,1.05 ± 0.066,0.988 ± 0.058,0.977 ± 0.07,0.974 ± 0.033
UniProt Q8N766 and related entries,0.976 ± 0.051,0.996 ± 0.018,0.974 ± 0.082,0.977 ± 0.065,0.982 ± 0.056,0.878 ± 0.1,0.934 ± 0.013,0.977 ± 0.052
UniProt Q8IY17 and related entries,1.01 ± 0.04,1.05 ± 0.053,1.05 ± 0.056,1.05 ± 0.033,1.028 ± 0.0096,1.01 ± 0.051,1.04 ± 0.04,1.06 ± 0.036
UniProt Q8NB78,1.05 ± 0.06,1.05 ± 0.037,1.11 ± 0.064,1.09 ± 0.025,1.11 ± 0.08,0.998 ± 0.08,1.11 ± 0.035,1.09 ± 0.025
UniProt Q8NCU8-2,0.666 ± 0.18,0.599 ± 0.048,0.876 ± 0.17,0.822 ± 0.086,0.826 ± 0.14,0.769 ± 0.068,0.883 ± 0.12,0.752 ± 0.038
UniProt Q8NC60,0.964 ± 0.083,0.923 ± 0.13,0.967 ± 0.17,0.876 ± 0.13,0.889 ± 0.13,0.876 ± 0.2,0.945 ± 0.15,0.942 ± 0.14
ZCCHC7 (UniProt Q8N3Z6),1.0226 ± 0.00045,1.12 ± 0.022,1.02 ± 0.19,1.2 ± 0.026,1.34 ± 0.021,1.48 ± 0.018,1.51 ± 0.15,1.79 ± 0.044
ZNF579 (UniProt Q8NAF0),1.1 ± 0.15,0.955 ± 0.091,0.954 ± 0.03,1.06 ± 0.12,0.945 ± 0.016,0.936 ± 0.073,0.901 ± 0.045,0.887 ± 0.1
UniProt Q8N137 and related entries,1 ± 0.075,1.03 ± 0.059,0.92 ± 0.024,1.032 ± 0.006,1.15 ± 0.056,0.983 ± 0.054,0.945 ± 0.026,0.947 ± 0.2
UniProt Q8IWZ8,0.977 ± 0.021,1.02 ± 0.033,1.03 ± 0.036,1.05 ± 0.037,1.08 ± 0.034,1.11 ± 0.068,1.11 ± 0.051,1.09 ± 0.037
UniProt Q8NI08-2,1.05 ± 0.067,1.04 ± 0.023,0.989 ± 0.064,1.03 ± 0.032,1.01 ± 0.016,1.02 ± 0.022,0.989 ± 0.039,0.993 ± 0.024
UniProt Q8IWY9 and related entries,1.01 ± 0.04,0.9767 ± 0.0096,–,–,–,–,–,–
LIX1L (UniProt Q8IVB5),0.973 ± 0.023,0.944 ± 0.059,–,–,–,–,–,–
NDUFAF2 (UniProt Q8N183),0.935 ± 0.15,0.885 ± 0.14,0.927 ± 0.11,0.916 ± 0.046,0.934 ± 0.093,0.906 ± 0.046,0.959 ± 0.062,0.848 ± 0.12
UniProt Q8N6N3 and related entries,0.952 ± 0.084,0.848 ± 0.048,0.865 ± 0.1,0.81 ± 0.041,0.869 ± 0.13,0.822 ± 0.051,0.779 ± 0.12,0.817 ± 0.063
DTWD1 (UniProt Q8N5C7),1.03 ± 0.036,0.999 ± 0.083,–,–,–,–,–,–
KIF18A (UniProt Q8NI77),0.999 ± 0.051,0.906 ± 0.061,1.09 ± 0.11,0.996 ± 0.2,1.09 ± 0.035,1.06 ± 0.013,1.09 ± 0.18,1.18 ± 0.16
NHLRC2 (UniProt Q8NBF2),1.03 ± 0.1,1.07 ± 0.12,1.01 ± 0.078,0.994 ± 0.096,0.979 ± 0.091,0.976 ± 0.12,0.985 ± 0.1,0.983 ± 0.09

# Part of the list above, bar-delimited:
Target | NP40-soluble protein abundance (concentration: 0.1mM) | NP40-soluble protein abundance (concentration: 0.5mM) | NP40-soluble protein abundance (concentration: 1mM) | NP40-soluble protein abundance (concentration: 2mM) | NP40-soluble protein abundance (concentration: 4mM) | NP40-soluble protein abundance (concentration: 6mM) | NP40-soluble protein abundance (concentration: 8mM) | NP40-soluble protein abundance (concentration: 10mM)
UniProt Q8NCU8-2 | 0.666 ± 0.18 | 0.599 ± 0.048 | 0.876 ± 0.17 | 0.822 ± 0.086 | 0.826 ± 0.14 | 0.769 ± 0.068 | 0.883 ± 0.12 | 0.752 ± 0.038
UniProt Q8NC60 | 0.964 ± 0.083 | 0.923 ± 0.13 | 0.967 ± 0.17 | 0.876 ± 0.13 | 0.889 ± 0.13 | 0.876 ± 0.2 | 0.945 ± 0.15 | 0.942 ± 0.14
